{"source": "patent US20050038058A1", "about": "“Novel compounds and methods for therapy” (Institute of Organic Chemistry and Biochemistry, priority 2001, published 2005)", "tested_on": "MSV", "assay": "MSV-induced transformation of murine embryo fibroblast C3H/3T3 cell cultures", "format": "cell-based", "conditions": "text b264", "method": "The inhibitory effect of the test compounds on MSV-induced transformation of murine embryo fibroblast C3H/3T3 cell cultures was examined microscopically at day 6 post infection. MSV was added at 75 focus-forming units to the cell cultures. The detailed procedures for the antiretroviral evaluations has been described in detail before (Balzarini et al., AIDS 5:21-28, 1991; Balzarini et al., Antimicrob. Agents Chemother. 37:332-338, 1993; De Clercq et al., Proc. Soc. Exp. Biol. Med. 137:590-594, 1971).", "note": "Some entries share one result that the patent states for a list of compounds.", "data": [{"smiles": "C[C@H](COc1cc(N)nc(N)n1)OCP(=O)(O)O", "note": "[Compound 11, 2,4-diamino-6-(R)-[2-(phosphonomethoxy)propoxy]pyrimidine]", "values": [{"measurement": "EC50 against MSV-induced C3H cell transformation", "value": "0.05 to 0.15", "unit": "µg/mL"}]}]}
